Results from article doi:10.1101/2021.04.15.440012.
For at least one entry, the source does not settle the construct or the ends of the probe. The comparison behind a weaker result is the experiment's own reference, which may not be listed here. At least one verdict rests on a figure or table, not on a statement of the authors.

Sequences of proteins named here, by UniProt entry; tags and fusion partners are left off. Residues count along the entry.
UniProt P07724, 25-608: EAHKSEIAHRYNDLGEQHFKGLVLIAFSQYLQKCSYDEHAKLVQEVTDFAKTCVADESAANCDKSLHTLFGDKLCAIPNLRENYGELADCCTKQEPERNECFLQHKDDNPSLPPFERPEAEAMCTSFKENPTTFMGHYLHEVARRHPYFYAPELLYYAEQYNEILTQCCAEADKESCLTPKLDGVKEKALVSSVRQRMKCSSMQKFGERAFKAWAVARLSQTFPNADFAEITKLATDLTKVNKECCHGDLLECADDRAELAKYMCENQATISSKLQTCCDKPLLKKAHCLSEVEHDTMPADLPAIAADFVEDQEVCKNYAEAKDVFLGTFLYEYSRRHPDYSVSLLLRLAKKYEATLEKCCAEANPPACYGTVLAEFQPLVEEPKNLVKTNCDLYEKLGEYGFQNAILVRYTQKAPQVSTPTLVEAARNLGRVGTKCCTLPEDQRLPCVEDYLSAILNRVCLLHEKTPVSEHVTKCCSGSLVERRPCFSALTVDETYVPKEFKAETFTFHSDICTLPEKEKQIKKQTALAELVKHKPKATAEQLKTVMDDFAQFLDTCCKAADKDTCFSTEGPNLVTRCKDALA
UniProt P02769, 25-607: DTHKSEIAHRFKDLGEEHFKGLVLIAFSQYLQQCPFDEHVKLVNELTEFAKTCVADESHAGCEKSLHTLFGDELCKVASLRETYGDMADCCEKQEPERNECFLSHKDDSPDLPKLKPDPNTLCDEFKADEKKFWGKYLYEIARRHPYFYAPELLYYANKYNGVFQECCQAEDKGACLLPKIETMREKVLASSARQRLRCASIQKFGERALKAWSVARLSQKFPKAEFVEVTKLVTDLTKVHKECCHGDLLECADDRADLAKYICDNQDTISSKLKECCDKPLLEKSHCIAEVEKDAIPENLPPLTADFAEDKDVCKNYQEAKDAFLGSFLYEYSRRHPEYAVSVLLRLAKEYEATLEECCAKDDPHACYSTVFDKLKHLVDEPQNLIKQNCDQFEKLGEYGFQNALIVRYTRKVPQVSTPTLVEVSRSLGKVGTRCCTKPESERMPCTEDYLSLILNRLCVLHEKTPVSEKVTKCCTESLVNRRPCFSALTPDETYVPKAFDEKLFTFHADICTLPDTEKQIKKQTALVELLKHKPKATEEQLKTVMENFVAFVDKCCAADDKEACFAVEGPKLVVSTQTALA

Columns and labels:
Experiment in all cases: plate-based fluorescence binding assay
Conditions in all cases: 1 uM chimera; 2'-fluoro pyrimidines in the transcribed strand
[1] = molecular target: Human serum albumin (Cy5-labeled in MST) (Homo sapiens) (UniProt P02768)
[2] = molecular target: Mouse serum albumin (Mus musculus) (UniProt P07724)
[3] = molecular target: Bovine serum albumin (Bos taurus) (UniProt P02769)

| Sequence | binding result [1] | binding result [2] | binding result [3] |
| --- | --- | --- | --- |
| GCGCCGCAACAGGUGUGACUGCCCUAGCCUCCGCUGUACCAAGAGGAGUUCAUUAUCAGUGCAAUUGUU / CAAUUGCACUGAUAAUGAACUCCTC | binds | binds | binds |
| GAUACUGAGCAUCGUACAUGAUCCCGCAACGGGCAGUAUUAAGAGGAGUUCAUUAUCAGUGCAAUUGU / CAAUUGCACUGAUAAUGAACUCCTC | binds more weakly | binds more weakly | binds more weakly |
